Data taken from the supplement of paper PMC3334620.
In all, about 33,000 sequences were measured (“E-score (-0.5 to 0.5)”: median about -0.0059, highest 2% from about 0.26 on). Some of the results follow.

Each sequence was assayed against T1, Cin5 (UniProt P40917) (assay: PBM E-score (8-mer binding enrichment) (E-score (-0.5 to 0.5)); higher = stronger / more preferred TF binding). Settings: protein concentration: 100 nM; construct: GST-full length.
T1 sequence: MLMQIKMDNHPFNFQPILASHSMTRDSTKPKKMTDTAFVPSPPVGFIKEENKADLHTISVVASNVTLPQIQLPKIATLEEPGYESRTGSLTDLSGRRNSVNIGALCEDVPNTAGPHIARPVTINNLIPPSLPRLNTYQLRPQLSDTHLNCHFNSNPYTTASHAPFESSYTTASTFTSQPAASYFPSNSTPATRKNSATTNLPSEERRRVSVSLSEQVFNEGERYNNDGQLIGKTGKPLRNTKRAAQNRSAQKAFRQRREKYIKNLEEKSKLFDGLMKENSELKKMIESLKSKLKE
Experimental: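 Universal 'all 10-mer' protein binding microarrays (Agilent AMADID 015681) probed with GST-tagged S. cerevisiae TFs (full-length or DBD) made by in vitro transcription/translation (PURExpress), about 100-200 nM. Bound TF was detected with fluorescent anti-GST. Each ungapped 8-mer (which stands for itself and its reverse complement) is scored by the PBM enrichment score (E-score), a modified Wilcoxon-Mann-Whitney statistic from -0.5 to +0.5, computed with the Universal PBM Analysis Suite. Scale: above 0.35 generally sequence-specific binding.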

Row | Sequence | PBM E-score
1 | CGCGGCAG | 0.0728
2 | GCCAGTCC | -0.247
3 | AGAGCCAT | -0.119
4 | CTGCACTC | -0.0714
5 | AGACCCCG | -0.00663
6 | CAGTTCCG | 0.0784
7 | ATAAGCGC | 0.188
8 | ATGAGTCC | 0.00652
9 | AAATTTGG | 0.085
10 | CTAGTGGC | -0.0739
11 | AACAGGTA | 0.0809
12 | AATAGGCC | -0.178
13 | AGACAAAC | -0.0527
14 | CGTCGAAC | -0.243
15 | CTTTAATA | 0.122
16 | CTACCGAG | -0.178
17 | ACATGCAG | -0.0421
18 | AAGCGTGA | 0.152
19 | CCGGATGA | -0.0838
20 | AGCAAGCC | -0.144
21 | CCTCGACC | -0.17
22 | CTCAGCGA | 0.0166
23 | AACAAACT | 0.0651
24 | CCACCCGG | -0.147
25 | ACTCAAAG | -0.036

Row | Sequence | PBM E-score
26 | CAAACGAA | -0.0117
27 | ATGAGGTC | -0.0958
28 | AGTGGTCA | -0.0431
29 | ACTTCCGG | 0.0119
30 | CAGCGGTC | -0.142
31 | ACCTGAAA | -0.0383
32 | AAGGGAGC | -0.226
33 | AAGCATGT | 0.18
34 | GATAAAGC | 0.00527
35 | CCCAGTCA | -0.156
36 | CCGGATCC | 0.0723
37 | GGGTGTAC | 0.00026
38 | ACCTGACA | 0.0412
39 | ACTATGTG | 0.0904
40 | ATTACTGG | 0.107
41 | GTAGTCGA | -0.0121
42 | AGTACATG | 0.118
43 | AGCGCAGG | -0.123
44 | ACAGTCTC | -0.0599
45 | CGATCACG | 0.117
46 | CGGCCACG | -0.193
47 | CGCGAAGC | 0.105
48 | CAGCAGGC | -0.126
49 | CGGACTAC | 0.0428
50 | ACTTAGAG | -0.164

Row | Sequence | PBM E-score
51 | GCACCTTA | -0.0198
52 | CAGGATTC | -0.0465
53 | GGAATTGA | 0.199
54 | ACTAATGA | 0.196
55 | ATTGAAAC | 0.174
56 | TCCGCTCA | -0.0629
57 | CACTCGTA | -0.12
58 | GGGTTACA | -0.0584
59 | ACGTATTA | 0.298
60 | ATCCTACC | -0.0227
61 | CTCGCAGA | -0.172
62 | AGCCGGTG | -0.0851
63 | GAGGGTAC | -0.147
64 | AGGTGATC | 0.109
65 | ACGTCCAT | -0.0491
66 | TAGAACTA | 0.0399
67 | CGGCAATA | 0.182
68 | AGCCAGGC | -0.0681
69 | CCTACGTA | 0.122
70 | CTGGATCA | -0.031
71 | AAATGGCG | 0.021
72 | CGAATTCA | 0.0951
73 | TGATCACA | 0.0609
74 | GGAGTTCA | -0.0752
75 | AGCAATGA | 0.13

Row | Sequence | PBM E-score
76 | AGCAACGG | 0.198
77 | ATGAGGCG | -0.14
78 | ATCGGTTG | 0.0626
79 | CTGGGGGC | -0.397
80 | ACGATAGT | 0.103
81 | TCGTCGCA | 0.0856
82 | AACGAACT | -0.0164
83 | GAGCTGCC | -0.163
84 | CGGAAAGA | 0.188
85 | CCAAACTA | 0.174
86 | GACACTGC | -0.127
87 | CCATAACC | 0.00089
88 | ACTCACGA | -0.0161
89 | ATTTTTAG | -0.0483
90 | AAGGAGCA | -0.132
91 | CACAATCC | 0.0827
92 | CTCGACAG | -0.103
93 | CTGGTGTC | 0.00482
94 | AATCTCAT | 0.157
95 | CTAGGGGA | -0.169
96 | CAGTCACA | -0.0381
97 | CCGTCTGC | -0.0138
98 | AAATGTCG | 0.0976
99 | AGCCAAAT | 0.0853
100 | TATTACAA | 0.189

Row | Sequence | PBM E-score
101 | ATGCGGTA | -0.053
102 | ACAACGAG | -0.0409
103 | GATATGCC | 0.0475
104 | CGAGAACA | 0.0489
105 | CCGTGGTC | -0.148
106 | GGAAGCCA | -0.251
107 | CCGCACCA | 0.0126
108 | CAGATAGA | -0.122
109 | CCGAGCAA | -0.0639
110 | CGTAGTGC | -0.0666
111 | CCAAGAGC | -0.149
112 | ATAGGCTC | -0.0723
113 | CCGAAACG | -0.102
114 | CCGGGAGA | -0.0997
115 | CCCCAGTA | 0.00957
116 | GTCTTAAC | -0.0459
117 | CAATTTAC | 0.144
118 | AGTGATCC | -0.0661
119 | TAAACTAA | 0.252
120 | CGAAGAAA | 0.178
121 | GCCCACGC | -0.163
122 | CGTCTTCA | -0.00914
123 | ACGGGTGA | -0.0265
124 | CATAATTC | 0.138
125 | ACGAGTCA | -0.257

Quoted at random: 4 records from the list
Row | Sequence | PBM E-score
38 | ACCTGACA | 0.0412
72 | CGAATTCA | 0.0951
93 | CTGGTGTC | 0.00482
96 | CAGTCACA | -0.0381

Some of the entries so far, with each value named.
ATGAGTCC
  PBM E-score: 0.00652
GATATGCC
  PBM E-score: 0.0475

Further entries follow:

Row | Sequence | PBM E-score
126 | AAATGTAC | 0.19
127 | ACACTATC | 0.142
128 | GACGACTA | -0.12
129 | TCACACCA | 0.0417
130 | CCTCTCCA | -0.359
131 | CAGAATGC | 0.0309
132 | AGCCGGTC | -0.234
133 | GATCCACA | -0.104
134 | AAATTCCG | 0.158
135 | TGCCGGAA | 0.0539
136 | GCTGTTTA | 0.204
137 | GCCCATTA | 0.0374
138 | ATCTCGGC | 0.0844
139 | GACAAACC | -0.0583
140 | CAAAAAAC | 0.101
141 | ACAATAAG | 0.0526
142 | GCAACTGC | 0.0384
143 | CCAGAGAA | 0.0393
144 | ACTTGGGG | 0.154
145 | AATGCCCA | -0.0906
146 | CGTTCCAG | -0.0777
147 | TACAGAGA | -0.107
148 | GGGAAGCA | -0.186
149 | ACACTGGC | -0.0673
150 | CGCCAGCC | -0.031

Row | Sequence | PBM E-score
151 | CGGCGGAC | -0.184
152 | ACGCCCCA | 0.198
153 | CTTCTTGC | -0.0659
154 | CGCGGCCG | -0.176
155 | GTGCTTCA | 0.132
156 | AAGACAAT | 0.202
157 | CCTTCTAC | -0.0521
158 | AATGTACG | 0.00418
159 | AGTATAGA | 0.171
160 | ACAGTTCC | 0.116
161 | GAAGTCAC | -0.162
162 | CTCTCAAG | 0.00161
163 | ATTGTGCA | 0.0337
164 | TATTTACA | 0.136
165 | CTCCCCCC | -0.345
166 | ATCGACTG | 0.101
167 | AGCTCTTC | 0.0165
168 | CCTTGTAG | -0.222
169 | ATTCGGAG | -0.0144
170 | CATAATGA | 0.132
171 | GGGCCCGA | -0.0174
172 | CGATGGTC | -0.0796
